Source: the supplement of paper PMC6331611
± gives the standard deviation of the averaged measurements. Over roughly 1,600 compounds, “normalized growth (OD600, IQM-normalized) in LPM” has its median near 1; the lowest 2% begin near 0.014. The list shows a part of the results.

system: Salmonella enterica serovar Typhimurium SL1344; assay: normalized growth (OD600, IQM-normalized) in LPM (fraction of plate interquartile mean); higher = more bacterial growth (less inhibition); conditions: LPM pH 5.8; 10 µM; 16 h

| SMILES | normalized growth |
| --- | --- |
| CC(C)c1cccc(C(C)C)c1O | 1.01 ± 0.018 |
| CC(=O)O[C@H]1CC[C@@]2(C)C(=CC[C@@H]3[C@@H]2CC[C@]2(C)C(=O)CC[C@@H]32)C1 | 0.979 ± 0.035 |
| CN1C[C@H](CNC(=O)OCc2ccccc2)C[C@@H]2c3cccc4c3c(cn4C)C[C@H]21 | 0.918 ± 0.026 |
| Oc1ccc2c3c1O[C@H]1[C@@H](O)CC[C@@]4(O)[C@@H](C2)N(CC2CCC2)CC[C@]314 | 0.92 ± 0.12 |
| CC1C=CC=CCCC=CC=CC=CC=CC(OC2OC(C)C(O)C(N)C2O)CC2OC(O)(CC(O)C(O)CCC(O)CC(O)CC(O)CC(=O)OC(C)C(C)C1O)CC(O)C2C(=O)O (stereo not given) | 0.896 ± 0.028 |
| COc1cc2c(c(OC)c1OC)-c1ccc(OC)c(=O)cc1[C@@H](NC(C)=O)CC2 | 1.08 ± 0.062 |
| CC[C@@H](CO)NC(=O)[C@@H]1C=C2c3cccc4c3c(cn4C)C[C@H]2N(C)C1 | 1.07 ± 0.024 |
| C[C@]12CC[C@H](O)CC1=CC[C@@H]1[C@@H]2CC[C@]2(C)C(=O)CC[C@@H]12 | 1.05 ± 0.049 |
| c1ccc2c(c1)OCC(C1=NCCN1)O2 (stereo not given) | 0.876 ± 0.059 |
| CC[N+]1(C)CCCC(OC(=O)C(O)(c2ccccc2)c2ccccc2)C1 (stereo not given) | 1.01 ± 0.041 |
| CC[C@@H](CO)NC(=O)[C@@H]1C=C2c3cccc4[nH]cc(c34)C[C@H]2N(C)C1 | 1.11 ± 0.044 |
| CCC1(C2=NCCN2)Cc2ccccc2O1 (stereo not given) | 0.994 ± 0.11 |
| CCCCOC(=O)c1ccccc1C(=O)OCCCC | 1.363 ± 0.0046 |
| O=C(O)c1nn(Cc2ccc(Cl)cc2Cl)c2ccccc12 | 1.06 ± 0.078 |
| Cc1cc(C(C#N)c2ccc(Cl)cc2)c(Cl)cc1NC(=O)c1cc(I)cc(I)c1O (stereo not given) | 0.801 ± 0.012 |
| COc1ccc2c(c1OC)C(=O)O[C@@H]2[C@H]1c2cc3c(cc2CCN1C)OCO3 | 1.06 ± 0.046 |
| C[C@@H]1C[C@@H]([C@H](O)CC2CC(=O)NC(=O)C2)C(=O)[C@@H](C)C1 | 1.04 ± 0.035 |
| CC[C@@H](C)C(=O)O[C@H]1[C@H](O)[C@H]2[C@@H](CN3C[C@@H](C)CC[C@H]3[C@@]2(C)O)[C@@H]2C[C@]34O[C@]5(O)[C@@H](OC(=O)[C@@](C)(O)CC)CC[C@@]3(C)[C@@H]5[C@@H](OC(C)=O)[C@@H](OC(C)=O)[C@H]4[C@@]21O | 0.96 ± 0.042 |
| O=c1cccc2n1C[C@@H]1CNC[C@H]2C1 | 1.31 ± 0.39 |
| NCC1(CC(=O)O)CCCCC1 | 1.02 ± 0.1 |
| O=C(CCCN1CCC2(CC1)C(=O)NCN2c1ccccc1)c1ccc(F)cc1 | 0.882 ± 0.088 |
| O=[N+]([O-])O[C@H]1CO[C@H]2[C@@H]1OC[C@H]2O[N+](=O)[O-] | 1.02 ± 0.046 |
| CC(O)(CS(=O)(=O)c1ccc(F)cc1)C(=O)Nc1ccc(C#N)c(C(F)(F)F)c1 (stereo not given) | 0.942 ± 0.051 |
| CCOC(=O)c1cncn1[C@H](C)c1ccccc1 | 1.04 ± 0.028 |
| O=[N+]([O-])C(Br)(CO)CO | 0.786 ± 0.02 |

| SMILES | normalized growth |
| --- | --- |
| CN1[C@@H]2C[C@@H](OC(=O)[C@H](CO)c3ccccc3)C[C@H]1[C@@H]1O[C@@H]12 | 1.06 ± 0.019 |
| CN1C[C@H](C(=O)N[C@]2(C)O[C@@]3(O)[C@@H]4CCCN4C(=O)[C@H](Cc4ccccc4)N3C2=O)C=C2c3cccc4[nH]cc(c34)C[C@H]21 | 1.02 ± 0.026 |
| [O-][n+]1ccccc1[S-].[O-][n+]1ccccc1[S-].[Zn+2] | 0.00799 ± 0.00024 |
| CN1CCN(C(=O)O[C@H]2c3nccnc3C(=O)N2c2ccc(Cl)cn2)CC1 | 0.963 ± 0.034 |
| O=C1CC[C@@]2(O)[C@H]3Cc4ccc(O)c5c4[C@@]2(CCN3CC2CC2)[C@H]1O5 | 0.841 ± 0.039 |
| NC(=O)c1cc([N+](=O)[O-])cc([N+](=O)[O-])c1 | 1.13 ± 0.03 |
| CN[C@@H]1[C@@H](O)[C@@H](O[C@@H]2[C@@H](O)[C@H](O[C@H]3O[C@H](CN)CC[C@H]3N)[C@@H](N)C[C@H]2N)OC[C@]1(C)O.CN[C@@H]1[C@@H](O)[C@@H](O[C@@H]2[C@@H](O)[C@H](O[C@H]3O[C@H]([C@@H](C)N)CC[C@H]3N)[C@@H](N)C[C@H]2N)OC[C@]1(C)O.CN[C@@H]1[C@@H](O)[C@@H](O[C@@H]2[C@@H](O)[C@H](O[C@H]3O[C@H]([C@@H](C)NC)CC[C@H]3N)[C@@H](N)C[C@H]2N)OC[C@]1(C)O | 1.01 ± 0.023 |
| NCc1cccnc1 | 1.02 ± 0.037 |
| O=C(O)CCCO | 0.949 ± 0.092 |
| C=C/C=C\CC1=C(C)[C@@H](OC(=O)[C@@H]2[C@@H](/C=C(\C)C(=O)OC)C2(C)C)CC1=O.C=C/C=C\CC1=C(C)[C@@H](OC(=O)[C@@H]2[C@@H](C=C(C)C)C2(C)C)CC1=O | 0.904 ± 0.019 |
| CC(NC(C)(C)C)C(=O)c1cccc(Cl)c1 (stereo not given) | 0.942 ± 0.026 |
| NCC(CC(=O)O)c1ccc(Cl)cc1 (stereo not given) | 0.998 ± 0.032 |
| CCOC(=O)CC(SP(=S)(OC)OC)C(=O)OCC (stereo not given) | 1.24 ± 0.032 |
| CC(N)Cc1ccc(O)cc1 (stereo not given) | 0.973 ± 0.039 |
| C[C@]12CC[C@H]3[C@@H](CCC4=CC(=O)CC[C@@]43C)[C@@H]1CC[C@@H]2O | 1.19 ± 0.11 |
| c1ccc2c(c1)Nc1ccccc1S2 | 0.829 ± 0.039 |
| Cc1ccc(/N=C/N(C)/C=N/c2ccc(C)cc2C)c(C)c1 | 1.033 ± 0.0032 |
| O=c1c2ccccc2[se]n1-c1ccccc1 | 1.01 ± 0.012 |
| NCC(O)c1ccc(O)cc1 (stereo not given) | 0.994 ± 0.038 |
| CC(=O)O[C@H]1C[C@@H]2CC[C@@H]3[C@H](CC[C@@]4(C)[C@H]3C[C@H]([N+]3(C)CCCCC3)[C@@H]4OC(C)=O)[C@@]2(C)C[C@@H]1[N+]1(C)CCCCC1 | 1.01 ± 0.042 |
| COP(=O)(OC)C(O)C(Cl)(Cl)Cl (stereo not given) | 1.01 ± 0.022 |
| C=CCN1CC[C@]23c4c5ccc(O)c4O[C@H]2C(=O)CC[C@@]3(O)[C@H]1C5 | 1.04 ± 0.082 |
| O=c1n(Cl)c(=O)n(Cl)c(=O)n1Cl | 0.903 ± 0.03 |
| C[C@]12CCC(=O)C=C1C=C[C@@H]1[C@@H]2CC[C@@]2(C)[C@H]1CC[C@@]2(O)CCC(=O)O | 1.04 ± 0.025 |
| CC[C@@H](C(=O)[C@@H](C)[C@@H](O)[C@H](C)[C@@H]1O[C@@H]([C@@H](CC)C(=O)O)CC[C@@H]1C)[C@H]1O[C@]2(C=C[C@@H](O)[C@]3(CC[C@@](C)([C@H]4CC[C@](O)(CC)[C@H](C)O4)O3)O2)[C@H](C)C[C@@H]1C | 0.972 ± 0.036 |

| SMILES | normalized growth |
| --- | --- |
| Cc1cccc(C)c1NC(=O)CN1CCCC1=O | 1.01 ± 0.052 |
| S=C=NCc1ccccc1 | 1.05 ± 0.08 |
| COP(=O)(OC)OC=C(Cl)Cl | 0.776 ± 0.065 |
| CNC(=O)Oc1ccc2c(c1)[C@]1(C)CCN(C)[C@@H]1N2C | 0.934 ± 0.048 |
| CN(C)C(=O)Oc1cccc([N+](C)(C)C)c1 | 1.01 ± 0.025 |
| CN1[C@H]2C[C@H](OC(=O)[C@H](CO)c3ccccc3)C[C@@H]1[C@@H](O)C2 | 1.08 ± 0.031 |
| COc1ccc(C(CN(C)C)C2(O)CCCCC2)cc1 (stereo not given) | 0.962 ± 0.039 |
| CN1CCc2cc3c(cc2C1O)OCO3 (stereo not given) | 1.04 ± 0.11 |
| NP(N)(=O)NC(=O)c1ccc(F)cc1 | 1.06 ± 0.017 |
| CC(C)C[C@H]1C(=O)N2CCC[C@H]2[C@]2(O)O[C@](NC(=O)[C@@H]3C=C4c5cccc6[nH]c(Br)c(c56)C[C@H]4N(C)C3)(C(C)C)C(=O)N12 | 0.947 ± 0.03 |
| CN1[C@@H]2CC[C@H]1C[C@@H](OC(=O)C(CO)c1ccccc1)C2 (stereo not given in full) | 0.974 ± 0.016 |
| CNCC(O)c1ccc(O)cc1 (stereo not given) | 0.85 ± 0.044 |
| CNC(C)(C)Cc1ccccc1 | 0.885 ± 0.077 |
| CCOP(=S)(OCC)Oc1cc(C)nc(C(C)C)n1 | 1.01 ± 0.023 |
| C[C@]12CCC(=O)C(O)=C1CC[C@@H]1[C@@H]2CC[C@]2(C)C(=O)CC[C@@H]12 | 0.995 ± 0.12 |
| NCCCNCCSP(=O)(O)O | 1.03 ± 0.031 |
| O=[N+]([O-])OCC(CO[N+](=O)[O-])O[N+](=O)[O-] | 1.13 ± 0.018 |
| CCCCCCCCC(=O)NCc1ccc(O)c(OC)c1 | 0.96 ± 0.043 |
| Nc1ccc([As](=O)(O)O)cc1 | 1.12 ± 0.032 |
| CC(=O)Nc1cc([As](=O)(O)O)ccc1O | 1.18 ± 0.14 |
| O=c1[nH]c2ccccc2n1C1CCN(CCCC(c2ccc(F)cc2)c2ccc(F)cc2)CC1 | 0.965 ± 0.0036 |
| CC(=O)[O][Hg][c]1ccccc1 | 0.0096 ± 0.00029 |
| C#CCN(C)[C@H](C)Cc1ccccc1 | 1 ± 0.021 |
| C[C@@H]1O[C@@H](O[C@@H]2C=C3CC[C@@H]4[C@H](CC[C@]5(C)[C@@H](c6ccc(=O)oc6)CC[C@]45O)[C@@]3(C)CC2)[C@H](O)[C@H](O)[C@H]1O | 0.967 ± 0.041 |
| CN(C)C(=O)Oc1ccc[n+](C)c1 | 1.14 ± 0.054 |

| SMILES | normalized growth |
| --- | --- |
| CCCC(C)(COC(N)=O)COC(=O)NC(C)C (stereo not given) | 1.03 ± 0.024 |
| COC(C)(C)CCC[C@H](C)C/C=C/C(C)=C/C(=O)OC(C)C | 1.06 ± 0.081 |
| Oc1ccc(Cl)cc1Cc1cc(Cl)ccc1O | 0.895 ± 0.086 |
| CC(O)CN1CCN(CC(=O)[O-])CCN(CC(=O)[O-])CCN(CC(=O)[O-])CC1.[Gd+3] (stereo not given) | 1.05 ± 0.024 |
| N[C@@H]1C[C@H]1c1ccccc1.N[C@H]1C[C@@H]1c1ccccc1 | 1.11 ± 0.043 |
| C#CC(C)(O)CC (stereo not given) | 1.01 ± 0.028 |
| C[N+]1(C)CCCC(OC(=O)C(O)(c2ccccc2)c2ccccc2)C1 (stereo not given) | 1.1 ± 0.011 |
| CCC1(CC)C(=O)NC(=O)NC1=O | 0.917 ± 0.018 |
| O=C1CCO1 | 0.959 ± 0.039 |
| COc1ccc(OC)c(C(O)C(C)N)c1 (stereo not given) | 1.03 ± 0.39 |
| CC([C@H](O)c1ccccc1)N(C)C (stereo not given in full) | 0.939 ± 0.095 |
| CCC(=O)O[C@H]1CC[C@H]2[C@@H]3CCC4=CC(=O)CC[C@]4(C)[C@H]3CC[C@]12C | 1.08 ± 0.021 |
| CCOP(=S)(OCC)Oc1nc(Cl)c(Cl)cc1Cl | 1.33 ± 0.11 |
| C=CCC1(C(C)CCC)C(=O)NC(=S)NC1=O (stereo not given) | 0.897 ± 0.095 |
| CCCCCCCCCCCCCCCC[n+]1ccccc1 | 0.0174 ± 0.0071 |
| CC(=O)NC1CCSC1=O (stereo not given) | 0.848 ± 0.027 |
| CNC(=O)Oc1ccccc1OC(C)C | 0.9696 ± 0.0074 |
| O=P1(N(CCCl)CCCl)NCCCO1 (stereo not given) | 0.987 ± 0.084 |
| c1ccc2c(c1)sc1ccccc12 | 1 ± 0.029 |
| CN1C(=O)CCS(=O)(=O)C1c1ccc(Cl)cc1 (stereo not given) | 1.04 ± 0.019 |
| CCOc1cc(C=O)ccc1O | 0.853 ± 0.023 |
| C=C1C[C@@H]2[C@H](CC[C@]3(C)C(=O)CC[C@@H]23)[C@@]2(C)C=CC(=O)C=C12 | 1.01 ± 0.04 |
| COc1ccc(Cc2nccc3cc(OC)c(OC)cc23)cc1OC | 1.13 ± 0.028 |
| CCC1(CC)C(=O)C=CNC1=O | 1.09 ± 0.12 |
| C[C@]12CC[C@H]3[C@@H](CC[C@@]45O[C@@H]4C(O)=C(C#N)C[C@]35C)[C@@H]1CC[C@@H]2O | 0.822 ± 0.098 |

In another format: 13 of the compounds above.
SMILES,normalized growth
N[C@@H]1C[C@H]1c1ccccc1.N[C@H]1C[C@@H]1c1ccccc1,1.11 ± 0.043
C[N+]1(C)CCCC(OC(=O)C(O)(c2ccccc2)c2ccccc2)C1 (stereo not given),1.1 ± 0.011
CCC1(CC)C(=O)NC(=O)NC1=O,0.917 ± 0.018
O=C1CCO1,0.959 ± 0.039
COc1ccc(OC)c(C(O)C(C)N)c1 (stereo not given),1.03 ± 0.39
CC([C@H](O)c1ccccc1)N(C)C (stereo not given in full),0.939 ± 0.095
C=CCC1(C(C)CCC)C(=O)NC(=S)NC1=O (stereo not given),0.897 ± 0.095
O=P1(N(CCCl)CCCl)NCCCO1 (stereo not given),0.987 ± 0.084
CN1C(=O)CCS(=O)(=O)C1c1ccc(Cl)cc1 (stereo not given),1.04 ± 0.019
CCOc1cc(C=O)ccc1O,0.853 ± 0.023
C=C1C[C@@H]2[C@H](CC[C@]3(C)C(=O)CC[C@@H]23)[C@@]2(C)C=CC(=O)C=C12,1.01 ± 0.04
CCC1(CC)C(=O)C=CNC1=O,1.09 ± 0.12
C[C@]12CC[C@H]3[C@@H](CC[C@@]45O[C@@H]4C(O)=C(C#N)C[C@]35C)[C@@H]1CC[C@@H]2O,0.822 ± 0.098

Random excerpt: 2 compounds from above, in no set order.

| SMILES | normalized growth |
| --- | --- |
| c1ccc2c(c1)sc1ccccc12 | 1 ± 0.029 |
| CCOP(=S)(OCC)Oc1nc(Cl)c(Cl)cc1Cl | 1.33 ± 0.11 |
